These are yes or no findings as the source states them, for the method shown. Some results given as binding are weak or reduced against the parent protein; the word gives no strength.
Molecular target: UXT purified from the UXT-eYFP-10×His construct (human) (UniProt Q9UBK9)
Test: co-purification (Ni-NTA, then SEC) with western blot; UXT-eYFP-10×His expressed in HEK293E, Ni-NTA, HRV3C cleavage, second Ni-NTA, SEC; UXT-containing fractions near the void volume blotted with anti-UXT, anti-p62 and anti-LC3

binding: binds
Substance: endogenous p62 in HEK293E cells (from UniProt Q13501 1-440)

— publication PMC8007730
